# Record: PubChem BioAssay AID652259 (Drosophila RNAi Screening Center, 2013)
# Aim: 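Knock-downs that push a Wingless-driven reporter up or down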 (primary screen)
# Cells: Drosophila clone 8 imaginal disc epithelial cells
# Knock-down reagent: long dsRNA against Drosophila genes
# Treatment: pathway stimulated by co-transfected Wingless expression plasmid
# Read-out: 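Dual luciferase reads per well after Wingless plasmid stimulation: reporter firefly light and Renilla control light; activity is firefly divided by Renilla, a ratio not deposited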
# Direction: firefly reporter light: higher = more Wg reporter light, before normalisation; Renilla control light: higher = more transfected or surviving cells
# Active means: 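Strong candidates differ from their plate mean by at least two out of four per-plate statistical tests; weak candidates meet just one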
# Calls: active = candidate regulator (raises or lowers reporter); inactive = not a candidate
# The deposit covers about 22,000 reagents; shown is a random part of those with a known target gene and a result. In the full data, 233 (1.1%) got an active call. 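Light values are raw, unnormalised plate reads; the ratio scores behind the reporter calls were not deposited.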 Unmarked entries are inactive. A plus sign joins genes that one reagent is predicted to hit. Not given: the amount of reagent, the time to read-out, the dose of the treatment.
Target gene,DRSC id,"reporter change call, replicate 1","firefly reporter light, replicate 1","firefly reporter light, replicate 2","Renilla control light, replicate 1","Renilla control light, replicate 2"
CG15547,DRSC15085,,8072,,2580,
kraken,DRSC00824,,3783,11298,1077,3309
CG31675,DRSC01825,,24256,,12264,
bocks,DRSC16489,,8640,,3812,
w-cup,DRSC03048,,4211,8277,1362,2549
Top2,DRSC03459,,2953,5740,1026,2299
CG5644,DRSC10531,,1625,6209,933,2364
CG43244,DRSC05336,,21516,,15437,
CG9877,DRSC04587,,3516,9097,998,3248
CG4743,DRSC15636,,14419,,11619,
PolD2,DRSC08147,,12528,,3776,
mtTFB2,DRSC15519,,12856,,2736,
ced-6,DRSC07591,,3456,13940,964,4371
Taf12,DRSC16879,Wg reporter activity raised (active),26516,,1770,
CG11444,DRSC17784,,2823,5664,1111,1496
Pcf11,DRSC05983,,4810,,1433,
sage,DRSC14580,,3799,,1394,
snama,DRSC04049,,7716,,3224,
Ote,DRSC07498,,16611,,4343,
Or35a,DRSC03389,,2592,4995,1122,2669
dpn,DRSC07605,,2330,4597,627,1985
Fas1,DRSC16669,,18765,,3666,
narya,DRSC19439,,2916,11154,1237,4115
aub,DRSC03486,,12480,,4564,
sav,DRSC14681,,17556,,16410,
sav,DRSC14682,,15691,,12960,
CG34150,DRSC13689,,6112,,2036,
CG16762,DRSC08493,,6068,,2850,
prim,DRSC06575,,6320,,2754,
Ir76a,DRSC10987,,4299,,1962,
HBS1,DRSC08544,,18804,,5170,
Pp2A-29B,DRSC03400,,3348,10406,1325,4348
Npl4,DRSC15615,,3863,8252,909,2484
Npl4,DRSC15616,,13531,,14694,
ND-20L,DRSC15414,,8886,,4019,
eIF3j,DRSC06107,,8418,,2005,
CG6996,DRSC10758,,11898,,2374,
CG13127,DRSC02223,,1783,7331,952,4085
CG12860,DRSC06200,,7025,,2640,
Nsun2,DRSC18662,,4832,9467,1877,3504
PLCXD,DRSC02427,,2100,4130,1031,1957
rib,DRSC07021,,7536,,2976,
CG14073,DRSC10078,,6560,,2087,
Or65c,DRSC21312,,5.73e5,8.58e5,3.49e5,2.97e5
Stacl,DRSC05553,Wg reporter activity raised,36683,,30274,
Stacl,DRSC06260,,9085,,2662,
Stacl,DRSC06261,,5595,,2071,
Stacl,DRSC06777,,6786,,2163,
Stacl,DRSC07091,Wg reporter activity raised (active),24052,,4915,
Jhbp7,DRSC14408,,23882,,16488,
CG31639,DRSC00910,,14435,,9365,
MESK2 + CG10494,DRSC04259,,2051,7475,648,2055
CG13051,DRSC09932,,11115,,4867,

Continued (12 carried over from the part before).
Target gene,DRSC id,"reporter change call, replicate 1","firefly reporter light, replicate 1","firefly reporter light, replicate 2","Renilla control light, replicate 1","Renilla control light, replicate 2"
rib,DRSC07021,,7536,,2976,
CG14073,DRSC10078,,6560,,2087,
Or65c,DRSC21312,,5.73e5,8.58e5,3.49e5,2.97e5
Stacl,DRSC05553,Wg reporter activity raised,36683,,30274,
Stacl,DRSC06260,,9085,,2662,
Stacl,DRSC06261,,5595,,2071,
Stacl,DRSC06777,,6786,,2163,
Stacl,DRSC07091,Wg reporter activity raised (active),24052,,4915,
Jhbp7,DRSC14408,,23882,,16488,
CG31639,DRSC00910,,14435,,9365,
MESK2 + CG10494,DRSC04259,,2051,7475,648,2055
CG13051,DRSC09932,,11115,,4867,
CG14767,DRSC06500,,11349,,3576,
Mst57Dc,DRSC16745,,12128,,12508,
CG33474,DRSC05218,,18056,,14594,
CG31036,DRSC15055,,6775,,3529,
CG31036,DRSC15057,,7177,,2664,
CG4294,DRSC04460,,4524,,1158,
PH4alphaSG1,DRSC15080,,5872,,2816,
CG17985,DRSC06702,,3149,8973,1242,3394
CG5506,DRSC10511,,6360,,2738,
Tdg,DRSC17119,,4436,,1739,
Tdg,DRSC17169,,21592,,11243,
Rab3-GEF,DRSC19954,,17072,,10960,
Rab3-GEF,DRSC19955,,16824,,9030,
Rab3-GEF,DRSC19956,,20773,,3746,
RpL26,DRSC10726,,16813,,2834,
GrlHz,DRSC04424,,10108,,2604,
CG10089,DRSC09694,,4756,,1382,
CG10089,DRSC09695,,6525,,2341,
betaCOP,DRSC20312,,2969,6736,832,2082
inaF-B + inaF-D + inaF-C + 1 more,DRSC20342,,20345,,10400,
CG8399,DRSC07163,,9848,,2871,
CG30222,DRSC04125,,2648,5299,1085,2240
CG30222,DRSC04262,,3824,8708,1384,4209
CG30496,DRSC06805,,19121,,5273,
Abp1,DRSC09693,,6923,,2112,
Pkn,DRSC06809,,10211,,1034,
Pkn,DRSC06810,,3174,8860,1078,1809
mh,DRSC20168,,16358,,6791,
Pex3,DRSC10731,,4388,,1335,
Cenp-C,DRSC14371,,14745,,3161,
CG42322,DRSC15112,,2832,8861,1521,1814
CG42322,DRSC15113,,14528,,4201,
CG42322,DRSC15114,,15752,,2166,
Tsp42Eh,DRSC06190,,3008,7464,890,3504
CG42514,DRSC10428,,3484,,1040,
CG4951,DRSC15682,,2064,4870,896,1143
CG9631,DRSC14137,,4549,,1531,
CG9577,DRSC20693,,23792,6.44e5,12037,3.33e5
CG43095,DRSC13573,,2285,,1395,
CG14763,DRSC06497,,3172,8796,934,4237
